Experimental data taken from the supplement of paper PMC8256030.
Values joined by “and” are separate entries in the source; they are usually repeats but may differ in a detail not shown here. Identical values can stand only once. The list shows a part of the results. Single values are uncertain here, since repeats match poorly.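 HEK293T cells were given each compound shortly before transfection with a reporter in which red mCherry is followed by the SARS-CoV-2 frameshift element and then GFP in the −1 frame, so GFP appears only after frameshifting.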

These compounds were tested on HEK293T (assay: percent viability (nuclei count) relative to control; higher = more viable cells). Settings: 10 µM; 24 h.

Question: Cc1cc2c(cc1CC(=O)c1sccc1S(=O)(=O)Nc1onc(C)c1Cl)OCO2 [Sitaxentan] was tested. Which percent viability did it give?
Answer: 253%

Question: CC(C)(Oc1ccc(Cl)cc1)C(=O)OCCNC(=O)c1cccnc1 [picafibrate] was tested. Which percent viability did it give?
Answer: 116%

Question: For CCC(c1ccccc1)c1c(O)c2ccccc2oc1=O (centres undefined) [Phenprocoumon], which percent viability is on record?
Answer: 59.5%

Question: How did the percent viability turn out when Cc1ccc(C(=O)c2cc(O)c(O)c([N+](=O)[O-])c2)cc1 [tolcapone] was run?
Answer: 216%

Question: With C[C@H](N)C(=O)N[C@@H](C)P(=O)(O)O [alafosfalin] as the compound, how does the percent viability read?
Answer: 213%

Question: CC(C)=CCC/C(C)=C/CC/C(C)=C/CCC(=O)OC/C=C(\C)CCC=C(C)C [gefarnate] was tested. Which percent viability did it give?
Answer: 160%

Question: For C[C@H](Cc1cc2c(c(C(N)=O)c1)N(CCCO)CC2)NCCOc1ccccc1OCC(F)(F)F [silodosin], which percent viability is on record?
Answer: 143%

Question: How did the percent viability turn out when CC12CCC(CC1)C(C)(C)O2 was run?
Answer: 145%

Question: Which percent viability does the source give for NS(=O)(=O)c1cc2c(cc1Cl)NC(CSCC(F)(F)F)NS2(=O)=O (centres undefined) [epitizide] here?
Answer: 88.1%

Question: For Nc1nc2c(c(=O)[nH]1)C[C@@H](CCc1ccc(C(=O)N[C@@H](CCC(=O)O)C(=O)O)cc1)CN2 [lometrexol], which percent viability is on record?
Answer: 133%

Question: With C=C1[C@H](CO)[C@@H](O)C[C@@H]1n1cnc2c(=O)[nH]c(N)nc21 [Baraclude] as the compound, how does the percent viability read?
Answer: 151%

Question: Which percent viability does the source give for C=C[C@H]1CN2CC[C@H]1C[C@H]2[C@H](O)c1ccnc2ccc(OC)cc12 [Aflukin] here?
Answer: 256%

Question: With CC(C)c1nc(N(C)S(C)(=O)=O)nc(-c2ccc(F)cc2)c1/C=C/[C@@H](O)C[C@@H](O)CC(=O)O as the compound, how does the percent viability read?
Answer: 302%

Question: O=c1[nH]c(=O)c2ccccc2o1 [carsalam] was tested. Which percent viability did it give?
Answer: 39.6%

Question: With NC(=O)C(c1ccccc1)(c1ccc(F)cc1)c1ccc(F)cc1 [senicapoc] as the compound, how does the percent viability read?
Answer: 93.8%

Question: COc1cc([C@@H]2c3cc4c(cc3[C@@H](O[C@@H]3O[C@@H]5CO[C@@H](C)O[C@H]5[C@H](O)[C@H]3O)[C@H]3COC(=O)[C@H]23)OCO4)cc(OC)c1O [etoposide] was tested. Which percent viability did it give?
Answer: 101%

Question: With CCCCCCCCCCCCCCCC(=O)OC[C@@H](NC(=O)C(Cl)Cl)[C@H](O)c1ccc([N+](=O)[O-])cc1 as the compound, how does the percent viability read?
Answer: 150%

Question: How did the percent viability turn out when CCCCCCc1ccc(O)cc1O.Nc1c2ccccc2nc2ccccc12 [acrisorcin] was run?
Answer: 24.8%

Question: For CCC[C@@H]1C[C@@H](C(=O)N[C@@H]([C@H]2O[C@H](SC)[C@H](O)[C@@H](O)[C@H]2O)[C@H](C)Cl)N(C)C1 [Clindamycin], which percent viability is on record?
Answer: 123%

Question: With CN1CCC(=C2c3ccccc3C=Cc3ccccc32)CC1 [cyproheptadine] as the compound, how does the percent viability read?
Answer: 353% and 263%

Question: O=C(Oc1cccc2cccnc12)c1ccccc1 [benzoxiquine] was tested. Which percent viability did it give?
Answer: 206%

Question: For CN[C@@H]1[C@H](O[C@H]2[C@H](O[C@H]3[C@H](O)[C@@H](O)[C@H](N=C(N)N)[C@@H](O)[C@@H]3N=C(N)N)O[C@@H](C)[C@]2(O)C=O)O[C@@H](CO)[C@H](O)[C@H]1O, which percent viability is on record?
Answer: 151%

Question: O=C(O)CCn1c2c(c3ccccc31)C[C@H](NS(=O)(=O)c1ccc(F)cc1)CC2 [ramatroban] was tested. Which percent viability did it give?
Answer: 173%

Question: How did the percent viability turn out when Cc1nnc(SCC2=C(C(=O)O)N3C(=O)[C@@H](NC(=O)Cn4cnnn4)[C@H]3SC2)s1 [cefazolin] was run?
Answer: 159%

Question: With N=C(N)NC(=O)Cc1c(Cl)cccc1Cl as the compound, how does the percent viability read?
Answer: 111%

Question: Which percent viability does the source give for CS(=O)(=O)c1ccc([C@H](O)[C@@H](COC(=O)CN)NC(=O)C(Cl)Cl)cc1 [Thiamphenicol glycinate] here?
Answer: 250%

Question: Which percent viability does the source give for CC[N+](C)(C)Cc1ccccc1Br [Bretylol] here?
Answer: 257%

Question: How did the percent viability turn out when Cc1cc(C)c(NC(=O)CN(CC(=O)O)CC(=O)O)c(C)c1Br [mebrofenin] was run?
Answer: 144%

Question: CC(=O)[C@@]1(O)CC[C@H]2[C@@H]3CCC4=CC(=O)CC[C@]4(C)[C@H]3CC[C@@]21C [hydroxyprogesterone] was tested. Which percent viability did it give?
Answer: 187%

Question: With C=C1CCO[C@]2([C@@H](O)[C@@](C)(O)CO)NC(=O)[C@@]1(O)NC2=O [bicozamycin] as the compound, how does the percent viability read?
Answer: 182%

Question: For CN(C)CCCSc1ccccc1NC(=O)/C=C/c1ccccc1 [Cinanserin], which percent viability is on record?
Answer: 297%

Question: For CC(C(=O)O)c1ccc(CC2CCCC2=O)cc1 (centres undefined) [loxoprofen], which percent viability is on record?
Answer: 92.5%

Question: C[C@@H]1CCO[C@H]2Cn3cc(C(=O)NCc4ccc(F)cc4F)c(=O)c(O)c3C(=O)N12 [Dolutegravir] was tested. Which percent viability did it give?
Answer: 91.1%

Question: For CCN(CC)C(C)CC(=O)Nc1ccccc1 (centres undefined) [octacaine], which percent viability is on record?
Answer: 153%

Question: CC(C)NCC(O)COc1ccccc1-n1cccc1 (centres undefined) [isamoltan] was tested. Which percent viability did it give?
Answer: 102%

Question: NCCCC(N)(C(=O)O)C(F)F (centres undefined) [eflornithine] was tested. Which percent viability did it give?
Answer: 295% and 241%

Question: For CC(C)NNC(=O)c1ccncc1 [iproniazid], which percent viability is on record?
Answer: 235% and 350%

Question: How did the percent viability turn out when CC1CC(OC(=O)C(O)c2ccccc2)CC(C)(C)C1 (centres undefined) [cyclandelate] was run?
Answer: 254%

Question: How did the percent viability turn out when O=C(NCc1ccccc1)OCCO [buramate] was run?
Answer: 128%
